{"source": "PubChem BioAssay AID493014", "about": "(National Center for Advancing Translational Sciences (NCATS), 2011)", "note": "About 170 (0.05%) of roughly 340,000 compounds were called active. This list was built around the results that the source calls inconclusive (neither active nor inactive); the mix of calls is not that of the screen. The call rests on the fitted dose curve; in most records, active means well fitted inhibition curve with a large enough effect in the signal ratio, with a control signal flat (not every such curve was filed as active); inconclusive means small, poorly fitted or top-dose-only effect, or effect the other way, or a change in a side signal; inactive means flat fitted curve, though single readings scatter; the % refers to the signal ratio. Potencies of inconclusive entries are doubtful fits and often do not repeat. Potency means the concentration at half of the fitted maximal effect.", "data": [{"experiment": "qHTS Assay to Find Inhibitors of Chronic Active B-Cell Receptor Signaling;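 on activity change, negative = inhibition: plate controls were basal doxycycline-induced cells for no effect and cells given 10 µM MG132 for full effect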", "settings": "ABC-DLBCL IkBa-CBG/CBR reporter, luminescence ratio (green luciferase fused to IkBa over red control in TMD8 lymphoma cells), 4 h; activity change, negative = inhibition: at 46.1 µM (top of the series)", "outline": "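Concentration-response series (up to 46 uM) were applied to TMD8 dual-reporter cells for 4 h at 37C with doxycycline. Green/red ratio, after filter-overlap correction, defined %Activity; red signal alone was normalised to basal cells and zero luminescence.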", "values": [{"smiles": "O=S(=O)(c1ccc(F)cc1)c1nc(-c2ccccc2)oc1N1CCOCC1", "activity change, negative = inhibition": "inactive"}, {"smiles": "COc1ccc(CCNC(=O)CN2CCN(c3cccc(C(F)(F)F)c3)CC2)cc1", "activity change, negative = inhibition": "inconclusive: -9.92%"}, {"smiles": "CCCCOc1ccc(NC2=NC3(CCCCC3)N=C(N)N2)cc1", "activity change, negative = inhibition": "inconclusive: -2.72%"}, {"smiles": "CC(C)CSc1nc2c(c(=O)[nH]c(=O)n2C)n1CC(O)COc1cccc2ccccc12", "note": "(centres undefined)", "activity change, negative = inhibition": "inconclusive: -9.9%"}, {"smiles": "Cc1ccc2oc(C(=O)Nc3cc(C)on3)c(C)c2c1", "activity change, negative = inhibition": "inconclusive: 0.777%"}, {"smiles": "COc1cc(C(=O)N2CCN(c3ccccc3Cl)CC2)ccc1OCC(=O)N1CCOCC1", "activity change, negative = inhibition": "inconclusive: -2.42%"}, {"smiles": "Cc1cccc(NC(=O)C2C3CCCCC32)c1", "note": "(centres undefined)", "activity change, negative = inhibition": "inconclusive: 2.02%"}, {"smiles": "Cc1ccc(N2CCN(/N=C/c3ccccc3)CC2)cc1", "activity change, negative = inhibition": "inconclusive: 5.43%"}, {"smiles": "CC(C)c1ccc(/C=N/n2cnnc2)cc1", "activity change, negative = inhibition": "inconclusive: 9.24%"}, {"smiles": "COc1cc(S(=O)(=O)N2CCCCCC2)ccc1-n1cnnn1", "activity change, negative = inhibition": "inconclusive: 11%"}, {"smiles": "COc1ccccc1NC(=O)c1ccc2snnc2c1", "activity change, negative = inhibition": "inactive"}, {"smiles": "O=C(COc1ccc(S(=O)(=O)NCc2ccccc2)cc1Cl)NCC1CCCO1", "note": "(centres undefined)", "activity change, negative = inhibition": "inconclusive: -18%"}, {"smiles": "COc1cccc(Nc2sc(C(=O)c3ccc(Cl)cc3)c(N)c2C(=O)NCc2ccc(C)cc2)c1", "Potency": "inconclusive: 15.8 µM [falling, partial curve]"}, {"smiles": "O=C(Nc1ccccc1)c1ccc(Br)c(S(=O)(=O)Nc2cccnc2)c1", "Potency": "inconclusive: 10.3 µM [falling, partial curve]"}, {"smiles": "CCCCOC(=O)NC1CCS(=O)(=O)C1", "note": "(centres undefined)", "activity change, negative = inhibition": "inconclusive: -14.7%"}, {"smiles": "O=C(OCC(=O)c1ccc[nH]1)c1ccc(F)c(S(=O)(=O)N2CCOCC2)c1", "activity change, negative = inhibition": "inconclusive: 3.23%"}, {"smiles": "COC(=O)CC1C(=O)NCCN1C(=S)Nc1cccc(C)c1", "note": "(centres undefined)", "activity change, negative = inhibition": "inactive"}, {"smiles": "O=C(Cc1cccc2ccccc12)Nc1ccc2oc(-c3ccccc3)nc2c1", "activity change, negative = inhibition": "inconclusive: 4.3%"}, {"smiles": "CCOc1ccc(NS(=O)(=O)c2cc(NC(=O)c3cccc(C)c3)ccc2Cl)cc1", "Potency": "inconclusive: 25.9 µM [falling, single point]"}, {"smiles": "O=C(Nc1sccc1C(=O)NCc1ccco1)c1cccnc1", "activity change, negative = inhibition": "inconclusive: 3.79%"}, {"smiles": "CC(OC(=O)c1cccc(N2C(=O)c3ccccc3C2=O)c1)C(=O)Nc1ccc(N(C)C)cc1", "note": "(centres undefined)", "activity change, negative = inhibition": "inconclusive: -8.4%"}, {"smiles": "COc1ccccc1NC(=O)c1cccs1", "activity change, negative = inhibition": "inactive"}, {"smiles": "CCCCn1c(=O)[nH]c(=O)c2c1nc(-c1ccccc1OC(F)F)n2C", "activity change, negative = inhibition": "inconclusive: -14.8%"}, {"smiles": "O=C(N/N=C/c1ccoc1)c1ccccc1F", "Potency": "inconclusive: 20 µM [falling, partial curve]"}, {"smiles": "COc1cccc(OCc2nc3ccccc3[nH]2)c1", "Potency": "inconclusive: 22.4 µM [falling, single point]"}, {"smiles": "Cc1ccc(-c2cc(-c3ccco3)c(C#N)c(=O)[nH]2)cc1", "activity change, negative = inhibition": "inconclusive: 23.8%"}, {"smiles": "COc1ccccc1N(Cc1cc(=O)[nH]c2ccccc12)C(=O)c1ccc([N+](=O)[O-])cc1", "activity change, negative = inhibition": "inconclusive: -21.9%"}, {"smiles": "CCN1C(=O)[C@H]2[C@@H](c3ccc(-c4cccc(Cl)c4)cc3)N[C@@](CC(C)C)(C(=O)OC)[C@H]2C1=O", "activity change, negative = inhibition": "inactive"}, {"smiles": "Cc1nc(C)c(NC(=O)N2CCc3ccccc32)cc1NC(=O)N1CCc2ccccc21", "activity change, negative = inhibition": "inconclusive: 0.112%"}, {"smiles": "O=C(CSc1ccccc1)Nc1ccc(C(=O)Nc2ccc(O)cc2)cc1", "activity change, negative = inhibition": "inconclusive: -0.0008%"}, {"smiles": "CCSC1=NC(=O)/C(=C2/C=Cc3ccccc3N2CC)S1", "Potency": "inconclusive: 5.8 µM [rising, partial curve, poor fit]"}, {"smiles": "Cc1cc(=O)n(CCO)c(O)c1C#N", "activity change, negative = inhibition": "inactive"}, {"smiles": "CN(C)S(=O)(=O)c1cccc(C(=O)Nc2ccc3c(c2)CCC3)c1", "activity change, negative = inhibition": "inactive"}, {"smiles": "Cc1ccc(Cc2cc(-c3ccc(C)cc3)n[nH]c2=O)cc1", "activity change, negative = inhibition": "inactive"}, {"smiles": "CC1CC(C)CN(CCCNC(=O)c2ccc3nc(N4CCOCC4)sc3c2)C1", "note": "(centres undefined)", "activity change, negative = inhibition": "inactive"}, {"smiles": "CCOC(=O)COc1ccc(C2NC(C(=O)O)CS2)cc1", "note": "(centres undefined)", "activity change, negative = inhibition": "inconclusive: -1.85%"}, {"smiles": "Cc1cc(NC(=O)Nc2cccc(Cl)c2)n(-c2ccccc2)n1", "activity change, negative = inhibition": "inactive"}, {"smiles": "CCOC(=O)c1ccc(N2C(=O)CC(N3CC(C)OC(C)C3)C2=O)cc1", "note": "(centres undefined)", "activity change, negative = inhibition": "inconclusive: 1.76%"}, {"smiles": "COCCOc1ccc(C(F)(F)F)cc1NC(=O)CN1C(=O)NC(C)(c2ccc3c(c2)OCO3)C1=O", "note": "(centres undefined)", "Potency": "inconclusive: 29.1 µM [falling, single point]"}, {"smiles": "O=C(NC(=S)Nc1cccnc1)c1cccc(Br)c1", "activity change, negative = inhibition": "inconclusive: -20.3%"}, {"smiles": "COc1ccccc1C1C(C(=O)c2sc(C)nc2C)=C(O)C(=O)N1CCN1CCOCC1", "note": "(centres undefined)", "Potency": "inconclusive: 15.8 µM [falling, single point]"}, {"smiles": "O=C(c1ccc2c(c1)OCO2)N1CCN(c2ccc(Cl)cc2)CC1", "activity change, negative = inhibition": "inactive"}, {"smiles": "CCCn1nnc(NC(=O)c2ccccc2Br)n1", "Potency": "inconclusive: 7.94 µM [falling, partial curve, poor fit]"}, {"smiles": "O=C(CC1S/C(=N/N=C2CCCCCC2)NC1=O)Nc1ccccc1F", "note": "(centres undefined)", "activity change, negative = inhibition": "inactive"}, {"smiles": "C[C@H](NC(=O)c1nc[nH]c1C(=O)N1CCN(C(=O)OC(C)(C)C)CC1)C(=O)OC(C)(C)C", "activity change, negative = inhibition": "inactive"}, {"smiles": "Oc1ccc(Nc2nc(NCC3CCCO3)c3ccccc3n2)cc1", "note": "(centres undefined)", "activity change, negative = inhibition": "inconclusive: 10.4%"}, {"smiles": "CCCOc1ccc(/C=N/NC(=S)Nc2ccccc2[N+](=O)[O-])c(O)c1", "activity change, negative = inhibition": "inconclusive: -16.2%"}, {"smiles": "COc1cccc(C2c3[nH]c4ccccc4c3C[C@H]3C(=O)N(c4ccccc4C(=O)N4CCCC4C(=O)O)C(=O)N23)c1", "note": "(some centres undefined)", "activity change, negative = inhibition": "inactive"}, {"smiles": "CC(C)(C)OC(=O)NCCCCCO", "activity change, negative = inhibition": "inactive"}, {"smiles": "CCCCc1ccc(NC(=O)CC(C)(C)C)cc1", "activity change, negative = inhibition": "inconclusive: 2.27%"}, {"smiles": "c1ccc2c(c1)OCC(c1nnc3sc(-c4cnccn4)nn13)O2", "note": "(centres undefined)", "activity change, negative = inhibition": "inconclusive: -14.8%"}, {"smiles": "CC(C)COC(=O)COc1cc(Cl)c(Cl)cc1Cl", "activity change, negative = inhibition": "inconclusive: -0.334%"}, {"smiles": "Cc1cccc(NC(=O)CNC(=O)CCc2nc3sc4c(c3c(=O)[nH]2)CCCC4)c1C", "activity change, negative = inhibition": "inactive"}, {"smiles": "CC(=O)NS(=O)(=O)c1ccc(NC(=O)c2cccc(OCc3c(C)noc3C)c2)cc1", "activity change, negative = inhibition": "inactive"}, {"smiles": "COc1ccc(Cl)cc1C(=O)NCC(C)C", "activity change, negative = inhibition": "inconclusive: -1.04%"}, {"smiles": "COC(=O)c1cc(OC)c(OC)cc1NC(=S)N1CCC(C(N)=O)CC1", "activity change, negative = inhibition": "inconclusive: -1.22%"}, {"smiles": "O=C(CCc1nnc(CCCc2ccccc2)o1)NCC(F)(F)F", "activity change, negative = inhibition": "inconclusive: 14.1%"}, {"smiles": "COc1ccc(CCNC(=O)C(=O)NCC2CCCN2S(=O)(=O)c2ccccc2)cc1", "note": "(centres undefined)", "Potency": "inconclusive: 29.1 µM [falling, single point]"}, {"smiles": "CN1C(=O)c2cccc3c(S(=O)(=O)NCc4ccco4)ccc1c23", "Potency": "inconclusive: 11.6 µM [falling, partial curve, poor fit]"}, {"smiles": "COc1ccc([N+](=O)[O-])cc1/C=N/NC(=O)c1nonc1N", "activity change, negative = inhibition": "inactive"}, {"smiles": "CC1CCc2c(sc(NC(=O)c3ccc(N4C(=O)CCC4=O)cc3)c2C(N)=O)C1", "note": "(centres undefined)", "activity change, negative = inhibition": "inactive"}, {"smiles": "O=C(Nc1ccc(Cc2ccc(NC(=O)C3CC3)c(O)c2)cc1O)C1CC1", "activity change, negative = inhibition": "inconclusive: -5.59%"}, {"smiles": "COc1ccc(-c2cc(-c3ccc(C)cc3)n[nH]2)c(O)c1", "Potency": "inconclusive: 25.1 µM [falling, single point]"}, {"smiles": "O=C(CSc1nnc(CNC(=O)c2ccc(F)cc2)o1)Nc1ccc2c(c1)OCO2", "activity change, negative = inhibition": "inconclusive: 1.11%"}, {"smiles": "Cc1cc(=O)n2cc(-c3ccccc3)nc2[nH]1", "Potency": "inconclusive: 23.1 µM [falling, partial curve]"}, {"smiles": "CC(=O)N/N=C/c1cc(C)n(-c2ccc(Br)cc2)c1C", "activity change, negative = inhibition": "inactive"}, {"smiles": "O=c1c(CO)cc(CO)cc(CO)c1O", "activity change, negative = inhibition": "inactive"}, {"smiles": "COc1ccc(-c2noc(CCC(=O)N3CCC(C)CC3)n2)cc1", "Potency": "inconclusive: 25.9 µM [rising, single point]"}, {"smiles": "CN1CCN(c2ccc(Cl)cc2NC(=O)c2ccc(S(=O)(=O)N(C)C)cc2)CC1", "Potency": "inconclusive: 3.66 µM [falling, partial curve, poor fit]"}, {"smiles": "NC(=O)c1ccc(Oc2cccc3cccnc23)c([N+](=O)[O-])c1", "activity change, negative = inhibition": "inactive"}, {"smiles": "CCCCCOc1ccc(C(=O)CCC(=O)Nc2ccc(NC(C)=O)cc2)cc1", "activity change, negative = inhibition": "inactive"}, {"smiles": "COc1cc(/C=C2\\SC(=S)N(NC(=O)c3ccncc3)C2=O)ccc1O", "activity change, negative = inhibition": "inconclusive: 27.5%"}, {"smiles": "C[C@H](NC(=O)[C@@H]1Cc2ccccc2CN1C(=O)OC(C)(C)C)C(=O)NC1CCCCC1", "Potency": "inconclusive: 22.4 µM [falling, single point]"}, {"smiles": "COc1ccc(/C=N/NC(=O)Cc2ccc(Cl)cc2)cc1OC", "Potency": "inconclusive: 7.08 µM [falling, full curve, poor fit]"}, {"smiles": "Cc1ccc(OCC(=O)Nc2ccccc2C(=O)N2CCCC2)cc1", "activity change, negative = inhibition": "inactive"}, {"smiles": "CCc1cc2ccc(OC)cc2nc1SCC(=O)NNC(C)=O", "activity change, negative = inhibition": "inconclusive: -0.564%"}, {"smiles": "COc1cccc2c(C)nc(Nc3nc(CSc4nnc(C)s4)cc(=O)[nH]3)nc12", "activity change, negative = inhibition": "inactive"}, {"smiles": "COc1ccc(/C=[N+](\\[O-])C2N(c3ccccc3)C(=S)SC2(C)C)cc1OC", "note": "(centres undefined)", "activity change, negative = inhibition": "inconclusive: 11.3%"}, {"smiles": "O=C(N/N=C/C=C/c1ccco1)c1ccncc1", "Potency": "inconclusive: 35.5 µM [falling, single point]"}, {"smiles": "COc1ccc2nc(NC(=O)c3ccccc3[N+](=O)[O-])sc2c1", "activity change, negative = inhibition": "inconclusive: 463%"}, {"smiles": "COC(=O)c1ccc(COC(=O)C23CC4CC(CC(O)(C4)C2)C3)o1", "activity change, negative = inhibition": "inconclusive: 1.24%"}, {"smiles": "CCn1cc(C(=O)N2CCc3ccccc32)c(=O)c2cc(S(=O)(=O)N(C)C3CCCCC3)ccc21", "activity change, negative = inhibition": "inconclusive: 5.64%"}, {"smiles": "Cn1c(=O)c2c(nc(NCCOc3ccc(C(C)(C)C)cc3)n2C)n(C)c1=O", "activity change, negative = inhibition": "inactive"}, {"smiles": "COc1nc(-c2ccccc2)nnc1-c1ccccc1", "Potency": "inconclusive: 35.5 µM [rising, single point]"}]}]}
